Drawing on patent US20020037533A1, this text covers binding for four molecules.

Amino acid sequences for entries named in this document (tags omitted). A change or cut given only in a name is not applied to a line headed by its entry. Chains listed by the source or under a name are the forms on record and can include a tag or linker. Residues count along the entry.
UniProt Q62083: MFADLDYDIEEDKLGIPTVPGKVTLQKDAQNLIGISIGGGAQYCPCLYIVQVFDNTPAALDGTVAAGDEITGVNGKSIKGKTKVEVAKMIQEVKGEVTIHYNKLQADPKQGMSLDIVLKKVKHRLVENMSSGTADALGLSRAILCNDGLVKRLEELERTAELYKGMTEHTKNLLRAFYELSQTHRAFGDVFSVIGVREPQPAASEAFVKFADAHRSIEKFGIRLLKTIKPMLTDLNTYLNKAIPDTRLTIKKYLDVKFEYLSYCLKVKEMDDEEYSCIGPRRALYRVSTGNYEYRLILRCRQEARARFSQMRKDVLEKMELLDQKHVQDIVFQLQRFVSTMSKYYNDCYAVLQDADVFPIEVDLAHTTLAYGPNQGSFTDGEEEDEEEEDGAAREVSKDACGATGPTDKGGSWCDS
UniProt P97879: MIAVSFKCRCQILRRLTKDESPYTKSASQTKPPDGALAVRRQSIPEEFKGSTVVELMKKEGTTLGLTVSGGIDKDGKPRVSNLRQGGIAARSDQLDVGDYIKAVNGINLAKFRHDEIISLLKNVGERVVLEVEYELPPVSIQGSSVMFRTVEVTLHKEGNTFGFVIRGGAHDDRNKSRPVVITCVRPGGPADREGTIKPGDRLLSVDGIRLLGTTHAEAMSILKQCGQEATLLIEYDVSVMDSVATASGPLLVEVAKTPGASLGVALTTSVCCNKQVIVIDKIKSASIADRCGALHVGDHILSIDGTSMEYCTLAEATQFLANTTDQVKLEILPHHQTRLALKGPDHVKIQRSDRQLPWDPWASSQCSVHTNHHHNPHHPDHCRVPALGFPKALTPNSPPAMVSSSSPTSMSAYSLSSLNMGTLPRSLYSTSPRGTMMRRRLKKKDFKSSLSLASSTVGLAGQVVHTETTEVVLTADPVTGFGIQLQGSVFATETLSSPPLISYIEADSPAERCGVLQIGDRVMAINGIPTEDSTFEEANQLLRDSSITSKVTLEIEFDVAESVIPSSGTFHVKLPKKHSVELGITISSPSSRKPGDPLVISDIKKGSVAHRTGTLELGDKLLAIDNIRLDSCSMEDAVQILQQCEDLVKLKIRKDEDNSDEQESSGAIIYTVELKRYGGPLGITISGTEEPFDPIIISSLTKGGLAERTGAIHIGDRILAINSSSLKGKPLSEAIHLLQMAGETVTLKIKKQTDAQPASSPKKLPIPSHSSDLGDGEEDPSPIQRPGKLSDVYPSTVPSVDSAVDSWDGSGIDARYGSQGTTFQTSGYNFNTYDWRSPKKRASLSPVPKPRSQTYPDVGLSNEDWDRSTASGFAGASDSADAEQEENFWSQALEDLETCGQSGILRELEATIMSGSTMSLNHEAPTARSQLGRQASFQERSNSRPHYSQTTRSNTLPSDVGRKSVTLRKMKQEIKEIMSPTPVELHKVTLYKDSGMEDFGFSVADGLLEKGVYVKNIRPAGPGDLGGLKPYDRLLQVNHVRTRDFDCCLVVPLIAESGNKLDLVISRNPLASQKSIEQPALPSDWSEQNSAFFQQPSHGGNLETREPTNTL
6X-Histidine tagged GRIP PDZ domain segment 4-6: residues 465-760 of P97879
myc-tagged ABP (AMPA binding protein) (Q9WTW1, form named): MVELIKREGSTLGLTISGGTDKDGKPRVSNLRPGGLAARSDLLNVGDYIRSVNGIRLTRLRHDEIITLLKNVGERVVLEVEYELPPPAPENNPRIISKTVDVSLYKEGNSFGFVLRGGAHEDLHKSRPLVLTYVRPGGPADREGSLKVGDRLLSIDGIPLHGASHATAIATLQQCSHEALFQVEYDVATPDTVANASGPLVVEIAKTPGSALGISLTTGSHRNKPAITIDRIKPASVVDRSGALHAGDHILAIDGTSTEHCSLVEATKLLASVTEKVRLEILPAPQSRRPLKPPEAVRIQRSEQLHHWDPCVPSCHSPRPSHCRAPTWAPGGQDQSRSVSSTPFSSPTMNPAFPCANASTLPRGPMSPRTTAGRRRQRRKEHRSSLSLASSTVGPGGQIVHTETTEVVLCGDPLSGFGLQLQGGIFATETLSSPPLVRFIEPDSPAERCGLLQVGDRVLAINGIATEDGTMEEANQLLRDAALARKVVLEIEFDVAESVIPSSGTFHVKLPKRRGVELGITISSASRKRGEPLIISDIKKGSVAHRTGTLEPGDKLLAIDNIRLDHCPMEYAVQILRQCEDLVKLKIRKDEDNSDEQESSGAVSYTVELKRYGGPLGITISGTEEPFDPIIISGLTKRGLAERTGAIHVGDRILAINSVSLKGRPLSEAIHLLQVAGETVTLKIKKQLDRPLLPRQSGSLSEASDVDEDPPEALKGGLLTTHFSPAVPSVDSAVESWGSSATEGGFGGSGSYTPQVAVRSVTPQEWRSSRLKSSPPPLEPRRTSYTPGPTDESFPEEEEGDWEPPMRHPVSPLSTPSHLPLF

Changes are numbered by the printed parent chain. In names and notes the source's numbering stands. These are yes or no findings as the source states them, for the method shown. In cells and extracts the contact can be indirect. Some results given as binding are weak or reduced against the parent protein; the word gives no strength. Tags and fused reporters may be left off the sequences shown.

In one assay the target is myc-tagged PICK1 (UniProt Q62083). The assay is described as follows: co-immunoprecipitation from HEK 293T cells co-transfected with myc-tagged PICK1 and Flag-tagged GPR10.
Assay [1] has as its target GRIP (UniProt P97879). The assay is described as follows: co-immunoprecipitation (anti-Flag) from co-transfected HEK 293T cells, anti-GRIP western blot. For orientation: Immunoblotting shows a protein as a band on a membrane.
The target of assay [2] is 6X-Histidine tagged GRIP PDZ domain segment 4-6 (UniProt P97879). The assay is described as follows: co-immunoprecipitation of 6X-His tagged GRIP PDZ segments with Flag-tagged GPR10.
The target in assay [3] is myc-tagged ABP (AMPA binding protein) (UniProt Q9WTW1). Briefly: co-immunoprecipitation from HEK 293T cells stably expressing Flag-tagged GPR10, transfected with myc-tagged ABP.
The target in assay [4] is GRIP (UniProt P97879). Briefly: co-immunoprecipitation of alanine point mutants of Flag-tagged GPR10 with GRIP, HEK 293T cells.

B1: Flag-tagged GPR10 (wild type) (receptor, UniProt P49683 1-370, looked up, not shown: small tags and cut ends)
chain: MASSTTRGPRVSDLFSGLPPAVTTPANQSAEASAGNGSVAGADAPAVTPFQSLQLVHQLKGLIVLLYSVVVVVGLVGNCLLVLVIARVRRLHNVTNFLIGNLALSDVLMCTACVPLTLAYAFEPRGWVFGGGLCHLVFFLQPVTVYVSVFTLTTIAVDRYVVLVHPLRRRISLRLSAYAVLAIWALSAVLALPAAVHTYHVELKPHDVRLCEEFWGSQERQRQLYAWGLLLVTYLLPLLVILLSYVRVSVKLRNRVVPGCVTQSQADWDRARRRRTFCLLVVIVVVFAVCWLPLHVFNLLRDLDPHAIDPYAFGLVQLLCHWLAMSSACYNPFIYAWLHDSFREELRKLLVAWPRKIAPHGQNMTVSVVI
B1: the binding result (with myc-tagged PICK1; with GRIP [1]; in assay [2]; in assay [3]) was “binds” in each case.

B2: Flag-tagged GPR10 V369A (receptor, UniProt P49683 1-370, looked up, not shown: small tags and cut ends)
chain: B1 chain with V369A
For B2, in the assay with GRIP [4], the binding result is on record as “binds”.

B3: Flag-tagged GPR10 T365A (receptor, UniProt P49683 1-370, looked up, not shown: small tags and cut ends)
chain: B1 chain with T365A
In the case of B3, in the assay with GRIP [4], the binding result is recorded as “binds”.

B4: Flag-tagged GPR10 V366A (receptor, UniProt P49683 1-370, looked up, not shown: small tags and cut ends)
chain: B1 chain with V366A
In the case of B4, the binding result with GRIP [4] is recorded as “binds”.
